# Laboratory results: the supplement of paper PMC10849652
# Chains of the proteins cited; added tags and fusions are not shown. Lines headed by an entry give the natural chain unless they say otherwise; changes in a name come on top.
# UniProt Q9NRR3: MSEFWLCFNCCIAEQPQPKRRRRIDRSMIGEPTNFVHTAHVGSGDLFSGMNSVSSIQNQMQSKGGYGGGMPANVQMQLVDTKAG
# UniProt Q96CF2: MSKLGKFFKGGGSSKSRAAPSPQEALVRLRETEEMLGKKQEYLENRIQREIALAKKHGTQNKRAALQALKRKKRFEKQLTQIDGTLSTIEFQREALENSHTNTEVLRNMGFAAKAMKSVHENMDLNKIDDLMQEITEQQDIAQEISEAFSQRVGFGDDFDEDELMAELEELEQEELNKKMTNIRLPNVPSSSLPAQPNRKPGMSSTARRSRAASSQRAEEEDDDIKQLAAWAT
# UniProt Q15517: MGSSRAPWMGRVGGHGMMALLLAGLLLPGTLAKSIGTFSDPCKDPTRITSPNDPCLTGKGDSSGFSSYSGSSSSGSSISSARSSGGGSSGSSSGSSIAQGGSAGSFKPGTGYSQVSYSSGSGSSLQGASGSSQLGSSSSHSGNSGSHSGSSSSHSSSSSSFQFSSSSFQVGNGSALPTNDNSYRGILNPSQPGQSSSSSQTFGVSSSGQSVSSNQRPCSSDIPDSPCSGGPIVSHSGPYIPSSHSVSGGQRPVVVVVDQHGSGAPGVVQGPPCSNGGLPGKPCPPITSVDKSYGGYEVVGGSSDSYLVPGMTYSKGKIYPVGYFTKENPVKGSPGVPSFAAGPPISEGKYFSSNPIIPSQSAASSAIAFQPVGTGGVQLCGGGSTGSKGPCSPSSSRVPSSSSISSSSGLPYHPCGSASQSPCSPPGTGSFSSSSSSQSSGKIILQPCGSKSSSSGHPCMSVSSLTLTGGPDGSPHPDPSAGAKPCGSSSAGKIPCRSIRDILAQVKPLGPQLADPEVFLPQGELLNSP
# UniProt Q8N4Q1: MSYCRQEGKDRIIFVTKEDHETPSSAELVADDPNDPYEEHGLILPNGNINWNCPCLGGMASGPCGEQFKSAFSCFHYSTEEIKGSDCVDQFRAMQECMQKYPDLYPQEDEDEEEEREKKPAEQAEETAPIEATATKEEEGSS
# UniProt Q12873: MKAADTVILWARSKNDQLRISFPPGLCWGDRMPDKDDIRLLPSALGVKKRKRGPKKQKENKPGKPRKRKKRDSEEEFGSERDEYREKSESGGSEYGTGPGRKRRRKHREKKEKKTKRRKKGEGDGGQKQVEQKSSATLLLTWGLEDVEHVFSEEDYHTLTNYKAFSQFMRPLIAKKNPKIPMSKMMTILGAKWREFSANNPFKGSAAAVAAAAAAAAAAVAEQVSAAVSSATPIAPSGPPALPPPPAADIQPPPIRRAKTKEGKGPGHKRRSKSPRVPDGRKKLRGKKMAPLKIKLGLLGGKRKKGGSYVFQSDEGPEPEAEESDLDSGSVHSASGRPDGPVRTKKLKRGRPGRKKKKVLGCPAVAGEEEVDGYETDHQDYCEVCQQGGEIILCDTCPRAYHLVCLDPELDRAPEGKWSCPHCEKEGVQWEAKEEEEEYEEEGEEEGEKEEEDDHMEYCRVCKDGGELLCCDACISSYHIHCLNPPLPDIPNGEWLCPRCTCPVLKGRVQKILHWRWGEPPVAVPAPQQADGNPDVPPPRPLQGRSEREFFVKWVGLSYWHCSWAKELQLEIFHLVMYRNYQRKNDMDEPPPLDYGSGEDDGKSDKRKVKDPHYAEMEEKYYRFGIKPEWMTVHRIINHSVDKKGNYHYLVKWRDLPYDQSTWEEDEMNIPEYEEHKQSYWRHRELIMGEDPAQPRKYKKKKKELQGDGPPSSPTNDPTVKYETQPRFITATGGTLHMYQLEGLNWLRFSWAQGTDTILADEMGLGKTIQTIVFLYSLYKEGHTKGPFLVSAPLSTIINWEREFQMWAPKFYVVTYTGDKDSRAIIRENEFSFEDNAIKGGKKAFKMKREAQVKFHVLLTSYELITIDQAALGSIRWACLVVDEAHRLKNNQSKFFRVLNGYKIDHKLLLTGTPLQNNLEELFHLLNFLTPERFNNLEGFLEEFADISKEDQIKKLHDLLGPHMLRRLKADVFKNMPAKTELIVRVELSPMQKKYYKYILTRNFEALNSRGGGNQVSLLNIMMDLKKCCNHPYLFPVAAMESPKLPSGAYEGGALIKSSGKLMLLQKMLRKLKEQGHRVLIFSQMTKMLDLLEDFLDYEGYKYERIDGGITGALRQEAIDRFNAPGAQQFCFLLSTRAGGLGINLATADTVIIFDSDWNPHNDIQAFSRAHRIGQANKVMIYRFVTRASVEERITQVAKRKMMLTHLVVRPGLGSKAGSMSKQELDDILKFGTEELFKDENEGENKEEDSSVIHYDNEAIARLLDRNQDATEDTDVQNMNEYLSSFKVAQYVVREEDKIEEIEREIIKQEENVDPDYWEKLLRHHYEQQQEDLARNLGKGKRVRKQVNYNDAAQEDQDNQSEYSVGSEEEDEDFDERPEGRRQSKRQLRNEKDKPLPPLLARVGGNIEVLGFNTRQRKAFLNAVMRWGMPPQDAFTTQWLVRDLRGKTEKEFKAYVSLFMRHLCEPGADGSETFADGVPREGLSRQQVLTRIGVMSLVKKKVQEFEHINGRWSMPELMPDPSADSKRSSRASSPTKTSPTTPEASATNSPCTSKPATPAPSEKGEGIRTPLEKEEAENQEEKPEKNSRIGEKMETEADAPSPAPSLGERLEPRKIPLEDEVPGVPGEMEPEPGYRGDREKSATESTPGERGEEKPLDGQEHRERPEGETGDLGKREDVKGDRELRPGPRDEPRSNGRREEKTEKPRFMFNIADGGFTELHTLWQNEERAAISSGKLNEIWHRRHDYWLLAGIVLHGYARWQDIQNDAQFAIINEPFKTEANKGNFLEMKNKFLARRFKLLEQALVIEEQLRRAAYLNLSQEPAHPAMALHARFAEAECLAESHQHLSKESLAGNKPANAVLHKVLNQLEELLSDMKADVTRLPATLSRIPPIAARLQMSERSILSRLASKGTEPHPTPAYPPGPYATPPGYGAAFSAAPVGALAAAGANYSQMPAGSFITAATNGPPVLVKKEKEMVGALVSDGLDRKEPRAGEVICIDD
# UniProt Q8WYQ3: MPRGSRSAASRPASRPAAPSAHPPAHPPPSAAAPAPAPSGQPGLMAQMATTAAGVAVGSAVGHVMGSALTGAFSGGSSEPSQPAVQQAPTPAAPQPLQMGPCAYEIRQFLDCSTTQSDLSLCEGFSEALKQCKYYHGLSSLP
# UniProt Q9BU64: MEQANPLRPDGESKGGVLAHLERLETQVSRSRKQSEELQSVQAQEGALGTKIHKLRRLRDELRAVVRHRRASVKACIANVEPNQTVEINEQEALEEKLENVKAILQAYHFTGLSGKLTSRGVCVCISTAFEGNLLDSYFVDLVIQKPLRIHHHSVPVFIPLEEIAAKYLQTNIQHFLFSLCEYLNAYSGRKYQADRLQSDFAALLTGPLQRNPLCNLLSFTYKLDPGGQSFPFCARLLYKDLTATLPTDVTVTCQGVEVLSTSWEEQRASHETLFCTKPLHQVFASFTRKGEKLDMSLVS
# UniProt Q9BWU1: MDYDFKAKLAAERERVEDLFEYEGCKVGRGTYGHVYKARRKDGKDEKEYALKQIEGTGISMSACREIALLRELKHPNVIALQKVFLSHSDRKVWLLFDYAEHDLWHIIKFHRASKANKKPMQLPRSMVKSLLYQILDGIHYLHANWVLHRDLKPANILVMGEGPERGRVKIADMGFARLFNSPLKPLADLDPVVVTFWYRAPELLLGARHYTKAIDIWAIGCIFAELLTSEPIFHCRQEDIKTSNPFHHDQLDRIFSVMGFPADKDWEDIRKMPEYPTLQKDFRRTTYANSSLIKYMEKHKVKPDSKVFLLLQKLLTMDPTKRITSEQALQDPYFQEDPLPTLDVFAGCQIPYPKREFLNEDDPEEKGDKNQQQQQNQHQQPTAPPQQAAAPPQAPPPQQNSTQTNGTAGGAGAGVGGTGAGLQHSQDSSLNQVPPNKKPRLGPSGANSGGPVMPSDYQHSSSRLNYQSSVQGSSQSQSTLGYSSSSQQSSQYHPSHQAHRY
# UniProt Q9UKJ5: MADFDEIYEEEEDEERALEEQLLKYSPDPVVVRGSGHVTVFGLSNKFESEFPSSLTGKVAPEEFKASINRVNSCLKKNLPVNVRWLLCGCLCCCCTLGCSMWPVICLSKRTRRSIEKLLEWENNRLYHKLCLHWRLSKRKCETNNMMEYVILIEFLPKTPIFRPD
# The list shows a part of the results.
# Columns and labels:
# Experiment in all cases: log2 fold change, soluble protein after heating vs DMSO (PISA); higher = thermal stabilisation; K562 cells, 10 uM, 30 min; active = over 0.2 and 3.5 SD of the protein, either way, in both replicates (recomputed)
# [1] = compound: CC[C@@H]1C(=O)N(C)c2cnc(Nc3ccc(C(=O)NC4CCN(C)CC4)cc3OC)nc2N1C1CCCC1
# Summary of the method: (§1)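 Thermal stability values are relative to control samples and come from duplicates. They are expressed as log2 fold changes. For measurement, K562 cells (2×10^6 cells/mL) received 10 μM compound for 30 min, and aliquots were heated for 3 min over 48°C-58°C, pooled, and extracted at 4°C in PBS with 0.5% NP-40. Soluble protein, the supernatant after 21,000xg for 90 min, was quantified by TMTpro 16plex LC-MS/MS with equalised channel sums.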
# volasertib = compound: CC[C@@H]1C(=O)N(C)c2cnc(Nc3ccc(C(=O)N[C@H]4CC[C@H](N5CCN(CC6CC6)CC5)CC4)cc3OC)nc2N1C(C)C [volasertib]
# Summary of the method: as §1
# [2] = compound: CC[C@H](C)N1C=C(C2=C(C=C(C=C21)C3=CN=C(C=C3)N4CCNCC4)C(=O)NCC5=C(C=C(NC5=O)C)C)C
# Summary of the method: as §1
# epoxomicin = compound: CC[C@H](C)[C@@H](C(=O)N[C@@H]([C@@H](C)O)C(=O)N[C@@H](CC(C)C)C(=O)[C@]1(CO1)C)NC(=O)[C@H]([C@@H](C)CC)N(C)C(=O)C [epoxomicin]
# Summary of the method: as §1
# [3] = compound: CCn1c(C(=O)N(C2CC2)C2CC2)cc2c3c(ncn3C)c(Nc3cc(C)n(C)n3)nc21
# Summary of the method: as §1
# [4] = compound: CN(C)CC(=O)Nc1ccc2[nH]c(=O)c3ccccc3c2c1
# Summary of the method: as §1
# rosiglitazone = compound: CN(CCOC1=CC=C(C=C1)C[C@H]2C(=O)NC(=O)S2)C3=CC=CC=N3 (racemic) [rosiglitazone]
# Summary of the method: as §1
# sotrastaurin = compound: CN1CCN(c2nc(C3=C(c4c[nH]c5ccccc45)C(=O)NC3=O)c3ccccc3n2)CC1 [sotrastaurin]
# Summary of the method: as §1
# alvocidib = compound: CN1CC[C@H](c2c(O)cc(O)c3c(=O)cc(-c4ccccc4Cl)oc23)[C@H](O)C1 [alvocidib]
# Summary of the method: as §1
# Tubastatin A = compound: CN1CCc2c(c3ccccc3n2Cc2ccc(C(=O)NO)cc2)C1 [Tubastatin A]
# Summary of the method: as §1
# [5] = compound: CNC(=O)C1=CC=CC=C1NC2=NC(=NC=C2Cl)NC3=C(C=C(C=C3)N4CCOCC4)OC
# Summary of the method: as §1
# defactinib = compound: CNC(=O)c1ccc(Nc2ncc(C(F)(F)F)c(NCc3nccnc3N(C)S(C)(=O)=O)n2)cc1 [defactinib]
# Summary of the method: as §1
# rucaparib = compound: CNCc1ccc(-c2[nH]c3cc(F)cc4c3c2CCNC4=O)cc1 [rucaparib]
# Summary of the method: as §1
# encorafenib = compound: COC(=O)N[C@@H](C)CNc1nccc(-c2cn(C(C)C)nc2-c2cc(Cl)cc(NS(C)(=O)=O)c2F)n1 [encorafenib]
# Summary of the method: as §1
# [6] = compound: COC(=O)[C@H](CCSC)NC(=O)C1=C(C=C(C=C1)NC[C@H](CS)N)C2=CC=CC=C2
# Summary of the method: as §1
# [7] = compound: CCn1cc(-c2ccnc3[nH]c(-c4cccc(CN(C)C)c4)cc23)c(-c2ccc(NC(=O)N(C)C)cc2)n1
# Summary of the method: as §1
# [8] = compound: CN1C2=C(C3=C1C(=O)N(N=C3)CC4=CC(=CC=C4)N)SC(=C2)S(=O)C
# Summary of the method: as §1
# [9] = compound: CN1CCC(CNc2ccc3ncc(-c4cccc(OC(F)(F)F)c4)n3n2)CC1
# Summary of the method: as §1
# saracatinib = compound: CN1CCN(CCOc2cc(OC3CCOCC3)c3c(Nc4c(Cl)ccc5c4OCO5)ncnc3c2)CC1 [saracatinib]
# Summary of the method: as §1
# [10] = compound: CNc1nc(-c2ccc3c(N)n[nH]c3c2)cc(N2C[C@@H](C(=O)NC3CCCCC3)CC[C@H]2C)n1
# Summary of the method: as §1
Target,log2 fold change [1],log2 fold change (volasertib),log2 fold change [2],log2 fold change (epoxomicin),log2 fold change [3],log2 fold change [4],log2 fold change (rosiglitazone),log2 fold change (sotrastaurin),log2 fold change (alvocidib),log2 fold change (Tubastatin A),log2 fold change [5],log2 fold change (defactinib),log2 fold change (rucaparib),log2 fold change (encorafenib),log2 fold change [6],log2 fold change [7],log2 fold change [8],log2 fold change [9],log2 fold change (saracatinib),log2 fold change [10]
CDC42SE2 (UniProt Q9NRR3),inactive: 0.174,inactive: 0.348,inactive: -0.025,inactive: 0.122,inactive: 0.042,inactive: 0.161,inactive: -0.042,inactive: -0.013,inactive: -0.042,inactive: 0.241,inactive: -0.097,inactive: -0.141,inactive: -0.073,inactive: -0.067,inactive: -0.597,,,,,
CHMP4C (UniProt Q96CF2),inactive: -0.23,inactive: -0.043,inactive: -0.014,inactive: -0.016,,inactive: 0.005,,inactive: 0.042,,inactive: -0.009,inactive: -0.173,inactive: -0.047,inactive: -0.032,inactive: -0.097,inactive: 0.007,inactive: -0.034,inactive: -0.206,inactive: -0.089,inactive: 0,inactive: -0.138
CDSN (UniProt Q15517),inactive: 0.524,inactive: 0.281,inactive: -0.069,inactive: 0.796,,inactive: 1.04,inactive: -0.027,inactive: -0.063,inactive: -0.269,inactive: 0.035,,inactive: -0.056,inactive: -0.289,inactive: -0.682,inactive: -0.099,inactive: 0.036,inactive: 0.259,inactive: -0.348,inactive: -0.902,inactive: 0.211
CHCHD4 isoform 2 (UniProt Q8N4Q1),inactive: -0.009,inactive: -0.125,inactive: -0.096,inactive: -0.186,,inactive: -0.023,,inactive: 0.003,,inactive: 0.061,inactive: 0.199,inactive: -0.049,inactive: -0.007,inactive: -0.046,inactive: -0.034,inactive: 0.231,inactive: -0.107,active: 0.795,inactive: 0.277,inactive: 0.202
CHD3 isoform 3 (UniProt Q12873),inactive: -0.093,active: -0.757,inactive: 0.149,inactive: 0.017,,inactive: 0.126,,inactive: -0.312,,inactive: 0.096,inactive: -0.029,inactive: -0.253,inactive: 0.134,inactive: 0.136,inactive: -0.087,inactive: 0.067,inactive: 0.099,inactive: -0.144,inactive: -0.067,inactive: -0.024
CHCHD10 (UniProt Q8WYQ3),inactive: -0.063,inactive: 0.037,inactive: 0.124,inactive: 0.018,inactive: -0.011,inactive: 0.097,inactive: 0.029,,,,inactive: -0.065,inactive: -0.243,inactive: 0.076,inactive: 0.02,inactive: 0.091,,,,,
CENPO (UniProt Q9BU64),inactive: -0.003,inactive: 0.022,inactive: -0.062,inactive: 0,inactive: -0.099,inactive: 0.111,inactive: -0.046,inactive: -0.098,inactive: -0.078,inactive: 0.122,inactive: 0.057,inactive: -0.236,inactive: 0.023,inactive: 0,inactive: -0.011,,inactive: -0.224,,inactive: -0.258,inactive: 0.107
CDK19 (UniProt Q9BWU1),inactive: 0.016,inactive: -0.064,inactive: 0.069,inactive: -0.114,,inactive: -0.068,,inactive: 0.035,active: 0.585,inactive: -0.104,inactive: -0.209,inactive: 0.046,inactive: 0.345,inactive: -0.086,inactive: -0.005,inactive: -0.1,inactive: 0.003,inactive: 0.456,inactive: 0.006,inactive: 0.03
CHIC2 (UniProt Q9UKJ5),inactive: 0.011,inactive: 0.006,inactive: 0.158,inactive: -0.004,inactive: 0.039,inactive: 0.045,inactive: 0.025,inactive: 0.106,inactive: 0.041,,inactive: 0.046,inactive: -0.101,inactive: -0.041,inactive: -0.037,inactive: 0.028,inactive: -0.002,inactive: 0.061,inactive: 0.055,inactive: -0.107,inactive: 0.05

# Part of the list above, showing only log2 fold change [2] and log2 fold change [7].
Target	log2 fold change [2]	log2 fold change [7]
CHMP4C (UniProt Q96CF2)	inactive: -0.014	inactive: -0.034
CENPO (UniProt Q9BU64)	inactive: -0.062	
